Test [1] concerns the target active Cdc42 (human (endogenous in 293T)) (UniProt P60953). Description: pull-down; extracts (2 mg) of 293T cells transfected with pcDNA3.1-myc/His-IQGAP3 incubated with GST-Pak1-p21 Binding Domain (Cdc42, Rac1), GST-Rhotekin-Rho Binding Domain (Rho) or GST-Raf1-Ras Binding Domain (Ras) and immobilised glutathione, 4 °C, 1 h; IQGAP3 in the precipitate of the active GTPase detected with anti-myc.

Sequences of proteins named here, by UniProt entry; tags and fusion partners are left off.
UniProt P60953: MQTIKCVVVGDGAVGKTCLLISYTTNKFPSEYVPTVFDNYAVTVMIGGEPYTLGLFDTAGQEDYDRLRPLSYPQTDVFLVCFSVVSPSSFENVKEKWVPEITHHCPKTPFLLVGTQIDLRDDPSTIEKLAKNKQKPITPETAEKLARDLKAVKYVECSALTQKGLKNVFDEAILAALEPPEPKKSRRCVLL
UniProt Q86VI3: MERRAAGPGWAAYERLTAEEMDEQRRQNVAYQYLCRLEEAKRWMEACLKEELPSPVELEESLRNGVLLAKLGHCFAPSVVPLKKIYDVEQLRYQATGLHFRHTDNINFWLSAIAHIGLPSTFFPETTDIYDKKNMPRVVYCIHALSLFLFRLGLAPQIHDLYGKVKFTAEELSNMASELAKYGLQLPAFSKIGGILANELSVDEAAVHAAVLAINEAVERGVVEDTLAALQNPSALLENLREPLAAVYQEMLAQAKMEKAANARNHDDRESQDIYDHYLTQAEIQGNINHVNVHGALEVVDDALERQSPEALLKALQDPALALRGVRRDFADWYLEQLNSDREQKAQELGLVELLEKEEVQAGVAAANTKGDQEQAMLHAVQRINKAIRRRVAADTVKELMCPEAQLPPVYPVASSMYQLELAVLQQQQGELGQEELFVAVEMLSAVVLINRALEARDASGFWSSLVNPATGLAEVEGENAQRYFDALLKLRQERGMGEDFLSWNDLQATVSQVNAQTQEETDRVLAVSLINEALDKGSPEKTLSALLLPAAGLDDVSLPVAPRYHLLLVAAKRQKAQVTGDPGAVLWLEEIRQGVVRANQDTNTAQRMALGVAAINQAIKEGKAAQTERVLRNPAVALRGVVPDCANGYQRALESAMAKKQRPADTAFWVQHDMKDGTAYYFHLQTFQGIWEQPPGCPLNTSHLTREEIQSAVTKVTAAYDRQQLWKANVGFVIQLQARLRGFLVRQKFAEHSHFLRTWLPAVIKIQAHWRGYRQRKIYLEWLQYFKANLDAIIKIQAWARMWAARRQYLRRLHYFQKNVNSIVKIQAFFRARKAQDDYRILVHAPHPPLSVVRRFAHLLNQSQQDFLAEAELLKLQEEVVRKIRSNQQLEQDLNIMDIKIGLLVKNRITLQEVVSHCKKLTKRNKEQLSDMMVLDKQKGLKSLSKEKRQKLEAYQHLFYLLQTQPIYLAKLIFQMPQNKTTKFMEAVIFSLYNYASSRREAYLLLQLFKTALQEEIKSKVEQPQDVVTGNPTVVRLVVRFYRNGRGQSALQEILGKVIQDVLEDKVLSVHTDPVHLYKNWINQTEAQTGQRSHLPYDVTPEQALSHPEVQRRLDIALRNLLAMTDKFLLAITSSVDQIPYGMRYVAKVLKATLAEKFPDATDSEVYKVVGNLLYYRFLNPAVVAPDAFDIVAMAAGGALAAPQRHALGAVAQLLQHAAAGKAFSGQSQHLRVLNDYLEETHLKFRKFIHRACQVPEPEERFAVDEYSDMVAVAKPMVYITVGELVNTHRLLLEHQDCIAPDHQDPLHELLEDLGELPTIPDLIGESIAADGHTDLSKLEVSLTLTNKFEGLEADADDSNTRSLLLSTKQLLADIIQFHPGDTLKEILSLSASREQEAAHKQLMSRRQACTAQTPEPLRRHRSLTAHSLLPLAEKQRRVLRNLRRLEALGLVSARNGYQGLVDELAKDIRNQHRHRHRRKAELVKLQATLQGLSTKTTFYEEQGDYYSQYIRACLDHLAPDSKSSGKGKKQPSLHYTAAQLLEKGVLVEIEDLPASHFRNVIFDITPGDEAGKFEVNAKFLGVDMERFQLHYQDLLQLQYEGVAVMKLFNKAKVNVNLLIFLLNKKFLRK
UniProt P35222: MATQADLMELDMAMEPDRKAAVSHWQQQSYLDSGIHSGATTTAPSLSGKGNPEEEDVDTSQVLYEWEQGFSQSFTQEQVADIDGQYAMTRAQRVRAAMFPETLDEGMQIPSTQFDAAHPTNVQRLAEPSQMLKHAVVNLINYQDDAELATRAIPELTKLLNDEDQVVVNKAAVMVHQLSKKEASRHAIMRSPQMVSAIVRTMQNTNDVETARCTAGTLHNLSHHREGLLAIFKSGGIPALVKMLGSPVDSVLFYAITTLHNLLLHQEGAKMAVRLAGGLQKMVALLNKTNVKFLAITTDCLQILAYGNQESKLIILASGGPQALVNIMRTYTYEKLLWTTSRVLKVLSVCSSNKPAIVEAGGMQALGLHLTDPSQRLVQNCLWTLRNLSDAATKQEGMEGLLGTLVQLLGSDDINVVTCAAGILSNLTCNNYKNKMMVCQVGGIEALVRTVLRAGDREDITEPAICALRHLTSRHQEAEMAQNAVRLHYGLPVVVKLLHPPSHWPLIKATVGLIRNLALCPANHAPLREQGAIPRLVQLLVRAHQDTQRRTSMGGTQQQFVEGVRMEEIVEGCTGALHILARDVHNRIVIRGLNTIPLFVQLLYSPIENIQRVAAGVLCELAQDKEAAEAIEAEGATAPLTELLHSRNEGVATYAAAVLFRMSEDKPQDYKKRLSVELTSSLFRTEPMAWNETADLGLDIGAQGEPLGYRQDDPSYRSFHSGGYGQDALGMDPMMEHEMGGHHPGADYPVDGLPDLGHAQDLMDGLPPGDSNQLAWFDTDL

Test [2] has as its target myc-tagged IQGAP3 (IQ-domain GTPase activating protein 3) (human) (UniProt Q86VI3). Description: co-IP; lysates of 293T cells 48 h after transfection; anti-c-myc (9E10), anti-E-cadherin (HECD-1) or anti-β-catenin (14) with rec-Protein G (or A) Sepharose 4B overnight at 4 °C; beads washed five times with 1 x TBS; immunoblot.

No constants are given. Whether binding was seen depends on the method and setting. Binding seen in cells or lysates may run through a third protein. Some entries that bind do so weakly or less than the wild type.

Turning to “myc-tagged IQGAP3 (IQ-domain GTPase activating protein 3) (from UniProt Q86VI3 1-1631)”, the binding entry in test [1] is listed as “binds”.
For β-catenin (from UniProt P35222 1-781), the binding result in test [2] was “binds”.

Source of the values: article PMC7465220.
